PubChem BioAssay AID1508597 | Cure First, 2020
This is an unselected part of about 2,100 reagents. 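Calls flag viability under 80% in either arm, not effects specific to rucaparib; the reference for percent is not stated.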 The record does not give: the 100% reference.

- Screen: 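Survival screen with siRNA in ovarian cancer cells derived from patients, with or without rucaparib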 (primary screen)
- Cells: human ovarian carcinoma lines grown from tumours: OCI-P5x (papillary serous) and OCI-C5x (clear cell)
- Reagent: siRNA pool against human genes, 1.25 pmol siRNA per well
- Duration: 72 h or 96 h, depending on the cell culture
- Conditions: rucaparib 20 µM (about IC30) or vehicle, present until read-out
- Detection: 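ATP luminescence measured at 72 or 96 h according to the culture, then normalised and expressed as percent viability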
- Scale: viability, normalised: higher = more viable cells remaining
- Call rule: 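a well counts as a hit if its normalised viability is under 80 percent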
- Meaning of the calls: active = viability under 80%; inactive = viability 80% or more

gene | rucaparib or vehicle | cell line | technical replicate | viability, normalised (%) | call
TSSK1A (testis specific serine kinase 1A (pseudogene)) | Rucaparib | OCI-C5x (clear cell) | 1 | 73.2 | active
TSSK1A (testis specific serine kinase 1A (pseudogene)) | Rucaparib | OCI-C5x (clear cell) | 2 | 68.9 | active
TSSK1A (testis specific serine kinase 1A (pseudogene)) | Rucaparib | OCI-C5x (clear cell) | 3 | 85.6 | inactive
TSSK1A (testis specific serine kinase 1A (pseudogene)) | Rucaparib | OCI-P5x (serous) | 1 | 120 | inactive
TSSK1A (testis specific serine kinase 1A (pseudogene)) | Rucaparib | OCI-P5x (serous) | 2 | 111 | inactive
TSSK1A (testis specific serine kinase 1A (pseudogene)) | Rucaparib | OCI-P5x (serous) | 3 | 112 | inactive
TSSK1A (testis specific serine kinase 1A (pseudogene)) | Vehicle | OCI-C5x (clear cell) | 1 | 62.4 | active
TSSK1A (testis specific serine kinase 1A (pseudogene)) | Vehicle | OCI-C5x (clear cell) | 2 | 62.9 | active
TSSK1A (testis specific serine kinase 1A (pseudogene)) | Vehicle | OCI-C5x (clear cell) | 3 | 63.6 | active
TSSK1A (testis specific serine kinase 1A (pseudogene)) | Vehicle | OCI-P5x (serous) | 1 | 92.3 | inactive
TSSK1A (testis specific serine kinase 1A (pseudogene)) | Vehicle | OCI-P5x (serous) | 2 | 94.5 | inactive
TSSK1A (testis specific serine kinase 1A (pseudogene)) | Vehicle | OCI-P5x (serous) | 3 | 89.5 | inactive
MED22 (mediator complex subunit 22) | Rucaparib | OCI-C5x (clear cell) | 1 | 32 | active
MED22 (mediator complex subunit 22) | Rucaparib | OCI-C5x (clear cell) | 2 | 38 | active
MED22 (mediator complex subunit 22) | Rucaparib | OCI-C5x (clear cell) | 3 | 40.5 | active
MED22 (mediator complex subunit 22) | Rucaparib | OCI-P5x (serous) | 1 | 58.2 | active
MED22 (mediator complex subunit 22) | Rucaparib | OCI-P5x (serous) | 2 | 56.8 | active
MED22 (mediator complex subunit 22) | Rucaparib | OCI-P5x (serous) | 3 | 55.5 | active
MED22 (mediator complex subunit 22) | Vehicle | OCI-C5x (clear cell) | 1 | 51.2 | active
MED22 (mediator complex subunit 22) | Vehicle | OCI-C5x (clear cell) | 2 | 47.3 | active
MED22 (mediator complex subunit 22) | Vehicle | OCI-C5x (clear cell) | 3 | 47.6 | active
MED22 (mediator complex subunit 22) | Vehicle | OCI-P5x (serous) | 1 | 64.4 | active
MED22 (mediator complex subunit 22) | Vehicle | OCI-P5x (serous) | 2 | 82.8 | inactive
MED22 (mediator complex subunit 22) | Vehicle | OCI-P5x (serous) | 3 | 80.4 | inactive
